These are yes or no findings as the source states them, for the method shown. Binding can be weak; no strength is given.
Assays:
[1] = target: IL-17-like receptor (on the BIAcore surface); experiment: BIAcore (SPR)
[2] = target: IL-17-like receptor (on the BIAcore surface); experiment: BIAcore (SPR), dialyzed HS50 fractions

binding [1]: binds
binding [2]: binds
B1: IL-20 polypeptide expressed in CHO cells (conditioned culture supernatants of clones 10, 16 and 22; HS50 cation-exchange fractions; CHO cell IL-20 preparations) (ligand)
chain: RSPKSKRKGQGRPGPLAPGPHQVPLDLVSRMKPYARMEEYERNIEEMVAQLRNSSELAQRKCEVNLQLWMSNKRSLSPWGYSINHDPSRIPVDLPEARCLCLGCVNPFTMQEDRSMVSVPVFSQVPVRRRLCPPPPRTGPCRQRAVMETIAVGCTCIF
modifications: glycosylated; single N-glycosylation site at residue 75 (FIG. 1 numbering)

Source: patent US20030180892A1
